Measured values from patent publication US20230348453A1, “HALOGENATED-HETEROARYL AND OTHER HETEROCYCLIC KINASE INHIBITORS, AND USES THEREOF” (iOmx Therapeutics AG, priority 2020, published 2023).

Test system: 320 wild-type protein kinases
Experiment: ProQinase Kinase Profiler single-point inhibition, selectivity score
Type: biochemical
Conditions: 1 μM

SMILES: Cc1nc(Nc2ncc(C(=O)Nc3c(Cl)ccnc3C)s2)cc(N2CCN(CCO)CC2)n1 [Compound B3, N-(4-chloro-2-methylpyridin-3-yl)-2-((6-(4-(2-hydroxyethyl)piperazin-1-yl)-2-methylpyrimidin-4-yl)amino)thiazole-5-carboxamide]
- Number of kinases inhibited to <5% residual activity: 30 kinases
- Number of kinases inhibited to less than 1% residual activity: 13 kinases
